Results reported in publication PMC4301804.
Results are given in words; binding and its absence hold for the method and conditions named. Binding seen in cells or lysates may run through a third protein. These calls come from enrichment with a bait or labelling near it, and not all partners need be listed. Sequences can lack the tags named with a protein.

By UniProt entry, the sequences of proteins in these tests, tags left out.
UniProt P14105: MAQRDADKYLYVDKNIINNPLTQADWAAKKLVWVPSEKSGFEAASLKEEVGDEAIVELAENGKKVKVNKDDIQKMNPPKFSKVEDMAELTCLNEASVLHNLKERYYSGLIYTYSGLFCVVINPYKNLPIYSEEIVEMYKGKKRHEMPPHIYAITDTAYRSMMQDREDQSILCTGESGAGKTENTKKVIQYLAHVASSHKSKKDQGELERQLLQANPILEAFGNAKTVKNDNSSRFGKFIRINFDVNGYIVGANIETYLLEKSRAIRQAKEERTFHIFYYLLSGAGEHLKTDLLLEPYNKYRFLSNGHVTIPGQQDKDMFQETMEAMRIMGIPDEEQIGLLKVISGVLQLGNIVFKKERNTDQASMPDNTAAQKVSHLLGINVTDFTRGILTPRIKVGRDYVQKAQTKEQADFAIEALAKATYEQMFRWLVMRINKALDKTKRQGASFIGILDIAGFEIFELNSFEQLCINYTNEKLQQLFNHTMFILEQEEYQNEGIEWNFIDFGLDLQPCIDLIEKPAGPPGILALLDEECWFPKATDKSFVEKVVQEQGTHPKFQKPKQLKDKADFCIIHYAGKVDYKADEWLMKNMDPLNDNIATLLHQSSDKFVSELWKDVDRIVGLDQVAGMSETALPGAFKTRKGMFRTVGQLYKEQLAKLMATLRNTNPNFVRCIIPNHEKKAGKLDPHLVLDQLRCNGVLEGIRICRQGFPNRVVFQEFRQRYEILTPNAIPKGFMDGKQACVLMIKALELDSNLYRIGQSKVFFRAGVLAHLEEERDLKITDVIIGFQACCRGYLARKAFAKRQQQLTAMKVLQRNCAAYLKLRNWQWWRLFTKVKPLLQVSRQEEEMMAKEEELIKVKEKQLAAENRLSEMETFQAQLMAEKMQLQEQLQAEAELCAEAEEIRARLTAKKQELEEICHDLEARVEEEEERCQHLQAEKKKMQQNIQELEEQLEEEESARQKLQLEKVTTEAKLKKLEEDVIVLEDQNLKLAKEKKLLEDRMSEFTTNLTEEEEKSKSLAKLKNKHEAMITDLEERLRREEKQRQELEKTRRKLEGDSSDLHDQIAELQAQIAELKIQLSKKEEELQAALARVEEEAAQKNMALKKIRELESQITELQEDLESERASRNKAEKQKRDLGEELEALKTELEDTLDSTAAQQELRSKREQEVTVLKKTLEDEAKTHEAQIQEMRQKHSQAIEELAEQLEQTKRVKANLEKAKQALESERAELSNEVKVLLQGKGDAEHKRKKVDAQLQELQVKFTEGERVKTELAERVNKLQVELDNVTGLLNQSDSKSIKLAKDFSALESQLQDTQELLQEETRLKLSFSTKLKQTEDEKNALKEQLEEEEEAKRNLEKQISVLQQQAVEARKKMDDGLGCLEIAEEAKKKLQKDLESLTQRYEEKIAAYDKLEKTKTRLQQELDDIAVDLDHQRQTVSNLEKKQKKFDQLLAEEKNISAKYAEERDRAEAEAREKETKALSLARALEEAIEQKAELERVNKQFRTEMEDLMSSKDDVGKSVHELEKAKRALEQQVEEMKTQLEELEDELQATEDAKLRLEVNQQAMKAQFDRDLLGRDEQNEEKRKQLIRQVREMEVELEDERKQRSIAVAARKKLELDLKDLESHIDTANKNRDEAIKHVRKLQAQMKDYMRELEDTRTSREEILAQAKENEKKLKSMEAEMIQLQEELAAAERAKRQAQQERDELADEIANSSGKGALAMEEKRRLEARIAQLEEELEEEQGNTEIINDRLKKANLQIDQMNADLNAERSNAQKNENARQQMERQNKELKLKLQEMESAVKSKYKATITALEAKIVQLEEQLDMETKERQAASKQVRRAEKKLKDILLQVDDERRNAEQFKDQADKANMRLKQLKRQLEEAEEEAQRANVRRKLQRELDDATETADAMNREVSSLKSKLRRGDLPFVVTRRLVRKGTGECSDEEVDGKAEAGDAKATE

Target: T1, 3xFLAG-tagged chicken Thy28 (cThy28; Thymocyte nuclear protein 1), shRNA-resistant silent mutant (chicken) (UniProt Q90679)
T1 sequence: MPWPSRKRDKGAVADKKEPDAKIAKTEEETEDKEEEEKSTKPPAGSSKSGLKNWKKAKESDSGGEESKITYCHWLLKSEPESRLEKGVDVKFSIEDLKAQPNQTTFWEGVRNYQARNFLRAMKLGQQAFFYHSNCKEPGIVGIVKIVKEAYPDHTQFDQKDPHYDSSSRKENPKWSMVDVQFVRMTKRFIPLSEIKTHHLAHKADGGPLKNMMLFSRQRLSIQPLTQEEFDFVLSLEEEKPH
Test: affinity purification with mass spectrometry; nuclear extracts pre-cleared with normal mouse IgG on Dynabeads-Protein G, then anti-FLAG M2 Ab on Dynabeads-Protein G at 4°C for 2 h; washed with 20 mM Tris pH 8.0, 150 mM NaCl, 25% glycerol, 1.5 mM MgCl2, 0.2 mM EDTA, 0.1% IGEPAL-CA630; eluted with 3xFLAG peptide; SDS-PAGE, silver staining, bands excised for LC-MS/MS

binding: binds
Substance: myosin-9 (MYH9) (from UniProt P14105 1-1959)
